Where two headings read alike, the source gives them in different places. Results are given in words; binding and its absence hold for the method and conditions named. Binding seen in cells or lysates may run through a third protein. Some results given as binding are weak or reduced against the parent protein; the word gives no strength.

Chains of the proteins cited; added tags and fusions are not shown. Residues count along the entry.
UniProt P23819, residues 25-883: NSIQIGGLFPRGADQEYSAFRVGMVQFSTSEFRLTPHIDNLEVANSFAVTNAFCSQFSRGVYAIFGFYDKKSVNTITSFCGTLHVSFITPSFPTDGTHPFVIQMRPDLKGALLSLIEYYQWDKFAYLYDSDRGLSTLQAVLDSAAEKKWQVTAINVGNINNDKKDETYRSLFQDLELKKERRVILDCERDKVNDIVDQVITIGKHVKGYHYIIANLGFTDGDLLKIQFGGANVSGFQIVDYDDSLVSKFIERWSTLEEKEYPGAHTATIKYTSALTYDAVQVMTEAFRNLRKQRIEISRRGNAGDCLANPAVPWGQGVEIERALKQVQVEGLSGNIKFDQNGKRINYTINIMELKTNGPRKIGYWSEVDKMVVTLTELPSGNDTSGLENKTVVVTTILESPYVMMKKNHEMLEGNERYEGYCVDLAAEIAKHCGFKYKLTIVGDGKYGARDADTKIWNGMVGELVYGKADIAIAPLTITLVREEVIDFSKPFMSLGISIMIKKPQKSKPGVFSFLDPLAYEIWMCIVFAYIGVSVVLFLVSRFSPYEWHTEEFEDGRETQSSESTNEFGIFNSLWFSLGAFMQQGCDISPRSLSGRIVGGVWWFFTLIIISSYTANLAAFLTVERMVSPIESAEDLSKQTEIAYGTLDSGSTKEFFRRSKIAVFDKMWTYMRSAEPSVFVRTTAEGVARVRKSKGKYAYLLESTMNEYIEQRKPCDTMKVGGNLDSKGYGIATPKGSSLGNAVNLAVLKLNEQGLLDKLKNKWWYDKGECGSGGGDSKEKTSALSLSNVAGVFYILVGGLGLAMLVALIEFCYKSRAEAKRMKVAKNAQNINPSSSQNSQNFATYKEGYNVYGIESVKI
UniProt Q5SXA9: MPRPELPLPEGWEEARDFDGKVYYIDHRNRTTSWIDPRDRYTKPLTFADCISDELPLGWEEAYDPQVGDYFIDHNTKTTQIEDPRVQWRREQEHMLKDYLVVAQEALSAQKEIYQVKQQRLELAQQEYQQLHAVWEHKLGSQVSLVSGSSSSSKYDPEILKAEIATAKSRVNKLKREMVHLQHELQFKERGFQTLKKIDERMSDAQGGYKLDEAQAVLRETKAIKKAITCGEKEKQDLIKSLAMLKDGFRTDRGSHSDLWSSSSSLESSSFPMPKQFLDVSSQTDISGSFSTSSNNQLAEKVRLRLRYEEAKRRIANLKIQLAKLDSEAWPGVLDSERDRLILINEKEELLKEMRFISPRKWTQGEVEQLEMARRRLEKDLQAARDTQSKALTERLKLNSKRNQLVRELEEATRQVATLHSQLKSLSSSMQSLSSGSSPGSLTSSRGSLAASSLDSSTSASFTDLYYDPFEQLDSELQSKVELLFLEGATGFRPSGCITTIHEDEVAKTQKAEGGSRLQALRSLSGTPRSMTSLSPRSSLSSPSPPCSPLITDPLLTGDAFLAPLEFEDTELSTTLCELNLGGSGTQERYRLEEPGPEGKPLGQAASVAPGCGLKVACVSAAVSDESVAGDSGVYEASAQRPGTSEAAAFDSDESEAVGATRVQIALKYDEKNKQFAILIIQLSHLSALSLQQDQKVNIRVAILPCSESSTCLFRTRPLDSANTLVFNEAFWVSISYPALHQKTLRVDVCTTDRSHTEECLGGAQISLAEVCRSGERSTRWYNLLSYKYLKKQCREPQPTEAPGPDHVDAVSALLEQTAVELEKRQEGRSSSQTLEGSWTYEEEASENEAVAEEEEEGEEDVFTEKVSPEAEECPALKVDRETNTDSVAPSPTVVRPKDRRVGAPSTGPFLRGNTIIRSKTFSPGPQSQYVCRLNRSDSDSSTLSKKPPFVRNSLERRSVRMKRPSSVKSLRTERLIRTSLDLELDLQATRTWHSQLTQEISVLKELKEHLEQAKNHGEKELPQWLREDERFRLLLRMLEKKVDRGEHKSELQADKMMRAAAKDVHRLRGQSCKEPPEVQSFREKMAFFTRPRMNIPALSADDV
UniProt P19491, residues 22-883: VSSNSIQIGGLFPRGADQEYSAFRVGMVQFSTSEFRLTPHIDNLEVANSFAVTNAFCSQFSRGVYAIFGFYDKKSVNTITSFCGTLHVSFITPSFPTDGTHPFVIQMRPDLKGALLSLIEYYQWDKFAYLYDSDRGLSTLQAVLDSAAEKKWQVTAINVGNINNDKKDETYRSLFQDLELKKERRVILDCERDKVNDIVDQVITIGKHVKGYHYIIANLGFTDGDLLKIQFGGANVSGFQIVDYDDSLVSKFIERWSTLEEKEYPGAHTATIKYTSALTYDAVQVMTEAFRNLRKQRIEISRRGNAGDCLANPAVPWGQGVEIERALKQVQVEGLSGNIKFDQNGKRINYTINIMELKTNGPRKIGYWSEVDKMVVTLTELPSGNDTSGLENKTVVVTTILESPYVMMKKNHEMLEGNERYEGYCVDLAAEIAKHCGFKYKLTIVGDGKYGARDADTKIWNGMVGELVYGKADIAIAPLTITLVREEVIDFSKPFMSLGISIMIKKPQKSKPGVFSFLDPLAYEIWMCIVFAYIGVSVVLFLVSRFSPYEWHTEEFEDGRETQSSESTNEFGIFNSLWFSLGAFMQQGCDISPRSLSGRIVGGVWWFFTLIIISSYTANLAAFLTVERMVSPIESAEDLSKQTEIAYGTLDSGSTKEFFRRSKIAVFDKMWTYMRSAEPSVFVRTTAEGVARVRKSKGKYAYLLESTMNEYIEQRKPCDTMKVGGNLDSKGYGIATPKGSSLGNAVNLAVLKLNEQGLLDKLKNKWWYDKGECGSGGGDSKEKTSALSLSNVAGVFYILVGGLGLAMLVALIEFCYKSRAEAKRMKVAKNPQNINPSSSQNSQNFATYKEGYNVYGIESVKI

Binding data for 3 substances are collected here from doi:10.1101/2021.10.26.465926.

Holding throughout (experiment): co-IP
Experiment [1] addresses AMPAR GluA2 subunit, endogenous in mouse forebrain (mouse (endogenous in mouse forebrain)) (UniProt P23819).
The target in experiment [2] is KIBRA, endogenous in mouse forebrain (mouse (endogenous in mouse forebrain)) (UniProt Q5SXA9).
The target in experiment [3] is AMPAR GluA2 subunit (cDNA expressed in HEK293T cells) (UniProt P19491).
Experiment [4] has the same target. This is another data set of the same source.
The target in experiment [5] is KIBRA (cDNA expressed in HEK293T cells) (UniProt Q5SXA9).

In the case of “PKCγ, endogenous in mouse forebrain (from UniProt P63318 1-697) (enzyme)”, the binding result in experiment [1] and in experiment [2] was “binds” in each case.

For “KIBRA (cDNA expressed in HEK293T cells) (from UniProt Q5SXA9 1-1104)”, the binding entry in experiment [3] is reported as “binds”.

On to “PKCγ (cDNA expressed in HEK293T cells) (from UniProt P63318 1-697) (enzyme)”, for which the binding result in experiment [3], in experiment [4] and in experiment [5] was “binds” in each case.
